Measurements from the supplement of paper PMC10849652.
This is one part of the list.

Chains of the proteins cited; added tags and fusions are not shown. Lines headed by an entry give the natural chain unless they say otherwise; changes in a name come on top.
UniProt O76070, whole entry, looked up: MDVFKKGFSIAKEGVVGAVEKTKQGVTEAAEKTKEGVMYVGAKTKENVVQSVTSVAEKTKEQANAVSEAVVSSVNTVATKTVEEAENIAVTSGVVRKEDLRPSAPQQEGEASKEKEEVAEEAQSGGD
UniProt O15370: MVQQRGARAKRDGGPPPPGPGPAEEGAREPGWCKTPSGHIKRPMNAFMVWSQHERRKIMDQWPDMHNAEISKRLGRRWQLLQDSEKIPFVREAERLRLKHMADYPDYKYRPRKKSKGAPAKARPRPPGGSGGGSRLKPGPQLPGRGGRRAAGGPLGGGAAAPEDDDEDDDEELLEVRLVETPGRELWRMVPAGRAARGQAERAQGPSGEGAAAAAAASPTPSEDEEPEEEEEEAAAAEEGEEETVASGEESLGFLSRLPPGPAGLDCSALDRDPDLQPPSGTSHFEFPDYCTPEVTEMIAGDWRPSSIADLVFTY
UniProt Q9NXE4: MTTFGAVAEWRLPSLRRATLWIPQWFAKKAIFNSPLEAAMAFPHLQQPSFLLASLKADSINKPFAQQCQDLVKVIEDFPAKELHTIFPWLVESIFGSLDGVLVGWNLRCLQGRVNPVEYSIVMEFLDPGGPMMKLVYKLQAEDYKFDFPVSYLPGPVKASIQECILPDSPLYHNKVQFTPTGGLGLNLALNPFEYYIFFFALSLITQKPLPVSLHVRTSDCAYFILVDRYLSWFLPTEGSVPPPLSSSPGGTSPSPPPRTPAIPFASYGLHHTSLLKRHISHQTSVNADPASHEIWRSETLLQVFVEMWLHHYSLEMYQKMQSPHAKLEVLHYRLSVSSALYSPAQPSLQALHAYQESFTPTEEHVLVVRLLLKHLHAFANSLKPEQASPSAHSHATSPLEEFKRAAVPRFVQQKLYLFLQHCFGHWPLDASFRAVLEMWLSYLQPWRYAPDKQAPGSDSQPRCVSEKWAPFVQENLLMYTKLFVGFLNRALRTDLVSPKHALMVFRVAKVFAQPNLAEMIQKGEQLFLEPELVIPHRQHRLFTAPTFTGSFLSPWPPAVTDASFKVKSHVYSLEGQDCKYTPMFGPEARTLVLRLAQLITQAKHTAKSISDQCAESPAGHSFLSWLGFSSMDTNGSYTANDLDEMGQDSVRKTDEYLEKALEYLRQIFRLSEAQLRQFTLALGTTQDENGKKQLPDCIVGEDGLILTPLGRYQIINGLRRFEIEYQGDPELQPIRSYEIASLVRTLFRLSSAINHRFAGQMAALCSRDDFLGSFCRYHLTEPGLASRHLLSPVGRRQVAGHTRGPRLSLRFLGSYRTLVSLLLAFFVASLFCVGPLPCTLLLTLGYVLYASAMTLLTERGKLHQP
UniProt Q02446, whole entry, looked up: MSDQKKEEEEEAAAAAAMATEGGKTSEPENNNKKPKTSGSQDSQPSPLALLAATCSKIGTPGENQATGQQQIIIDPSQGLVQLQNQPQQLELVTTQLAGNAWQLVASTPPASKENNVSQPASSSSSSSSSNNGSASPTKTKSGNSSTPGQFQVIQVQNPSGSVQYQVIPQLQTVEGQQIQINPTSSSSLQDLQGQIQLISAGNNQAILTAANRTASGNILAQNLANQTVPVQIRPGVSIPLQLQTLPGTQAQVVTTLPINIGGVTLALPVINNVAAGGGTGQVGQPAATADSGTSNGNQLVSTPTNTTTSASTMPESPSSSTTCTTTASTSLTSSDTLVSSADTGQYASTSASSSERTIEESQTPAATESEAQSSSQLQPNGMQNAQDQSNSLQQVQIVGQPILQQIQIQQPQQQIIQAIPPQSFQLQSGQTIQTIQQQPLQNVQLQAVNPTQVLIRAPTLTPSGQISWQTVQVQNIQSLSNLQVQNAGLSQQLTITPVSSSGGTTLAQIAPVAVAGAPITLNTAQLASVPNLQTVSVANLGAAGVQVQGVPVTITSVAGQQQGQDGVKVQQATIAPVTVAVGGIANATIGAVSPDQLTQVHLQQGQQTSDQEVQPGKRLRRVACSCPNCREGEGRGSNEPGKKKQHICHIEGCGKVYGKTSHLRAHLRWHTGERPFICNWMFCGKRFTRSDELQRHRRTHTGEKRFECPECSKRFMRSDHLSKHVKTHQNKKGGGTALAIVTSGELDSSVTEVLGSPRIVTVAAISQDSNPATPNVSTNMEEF
UniProt P09486: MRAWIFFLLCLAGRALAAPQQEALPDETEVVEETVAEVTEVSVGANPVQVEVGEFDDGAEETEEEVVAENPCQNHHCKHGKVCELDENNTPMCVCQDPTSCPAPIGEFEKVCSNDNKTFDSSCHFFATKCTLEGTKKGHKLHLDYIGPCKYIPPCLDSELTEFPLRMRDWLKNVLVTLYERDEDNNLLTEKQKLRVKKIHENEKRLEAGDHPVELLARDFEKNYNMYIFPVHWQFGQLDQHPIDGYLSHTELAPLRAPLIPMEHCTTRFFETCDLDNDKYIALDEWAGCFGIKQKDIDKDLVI
UniProt Q96H20: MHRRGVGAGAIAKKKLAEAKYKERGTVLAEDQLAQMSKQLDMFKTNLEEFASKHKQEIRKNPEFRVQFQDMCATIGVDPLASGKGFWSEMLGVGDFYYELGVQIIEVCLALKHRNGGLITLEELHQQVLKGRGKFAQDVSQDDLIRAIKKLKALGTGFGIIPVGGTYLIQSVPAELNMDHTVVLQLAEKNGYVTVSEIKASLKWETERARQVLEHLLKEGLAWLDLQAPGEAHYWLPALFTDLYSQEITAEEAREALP
UniProt A6NHR9: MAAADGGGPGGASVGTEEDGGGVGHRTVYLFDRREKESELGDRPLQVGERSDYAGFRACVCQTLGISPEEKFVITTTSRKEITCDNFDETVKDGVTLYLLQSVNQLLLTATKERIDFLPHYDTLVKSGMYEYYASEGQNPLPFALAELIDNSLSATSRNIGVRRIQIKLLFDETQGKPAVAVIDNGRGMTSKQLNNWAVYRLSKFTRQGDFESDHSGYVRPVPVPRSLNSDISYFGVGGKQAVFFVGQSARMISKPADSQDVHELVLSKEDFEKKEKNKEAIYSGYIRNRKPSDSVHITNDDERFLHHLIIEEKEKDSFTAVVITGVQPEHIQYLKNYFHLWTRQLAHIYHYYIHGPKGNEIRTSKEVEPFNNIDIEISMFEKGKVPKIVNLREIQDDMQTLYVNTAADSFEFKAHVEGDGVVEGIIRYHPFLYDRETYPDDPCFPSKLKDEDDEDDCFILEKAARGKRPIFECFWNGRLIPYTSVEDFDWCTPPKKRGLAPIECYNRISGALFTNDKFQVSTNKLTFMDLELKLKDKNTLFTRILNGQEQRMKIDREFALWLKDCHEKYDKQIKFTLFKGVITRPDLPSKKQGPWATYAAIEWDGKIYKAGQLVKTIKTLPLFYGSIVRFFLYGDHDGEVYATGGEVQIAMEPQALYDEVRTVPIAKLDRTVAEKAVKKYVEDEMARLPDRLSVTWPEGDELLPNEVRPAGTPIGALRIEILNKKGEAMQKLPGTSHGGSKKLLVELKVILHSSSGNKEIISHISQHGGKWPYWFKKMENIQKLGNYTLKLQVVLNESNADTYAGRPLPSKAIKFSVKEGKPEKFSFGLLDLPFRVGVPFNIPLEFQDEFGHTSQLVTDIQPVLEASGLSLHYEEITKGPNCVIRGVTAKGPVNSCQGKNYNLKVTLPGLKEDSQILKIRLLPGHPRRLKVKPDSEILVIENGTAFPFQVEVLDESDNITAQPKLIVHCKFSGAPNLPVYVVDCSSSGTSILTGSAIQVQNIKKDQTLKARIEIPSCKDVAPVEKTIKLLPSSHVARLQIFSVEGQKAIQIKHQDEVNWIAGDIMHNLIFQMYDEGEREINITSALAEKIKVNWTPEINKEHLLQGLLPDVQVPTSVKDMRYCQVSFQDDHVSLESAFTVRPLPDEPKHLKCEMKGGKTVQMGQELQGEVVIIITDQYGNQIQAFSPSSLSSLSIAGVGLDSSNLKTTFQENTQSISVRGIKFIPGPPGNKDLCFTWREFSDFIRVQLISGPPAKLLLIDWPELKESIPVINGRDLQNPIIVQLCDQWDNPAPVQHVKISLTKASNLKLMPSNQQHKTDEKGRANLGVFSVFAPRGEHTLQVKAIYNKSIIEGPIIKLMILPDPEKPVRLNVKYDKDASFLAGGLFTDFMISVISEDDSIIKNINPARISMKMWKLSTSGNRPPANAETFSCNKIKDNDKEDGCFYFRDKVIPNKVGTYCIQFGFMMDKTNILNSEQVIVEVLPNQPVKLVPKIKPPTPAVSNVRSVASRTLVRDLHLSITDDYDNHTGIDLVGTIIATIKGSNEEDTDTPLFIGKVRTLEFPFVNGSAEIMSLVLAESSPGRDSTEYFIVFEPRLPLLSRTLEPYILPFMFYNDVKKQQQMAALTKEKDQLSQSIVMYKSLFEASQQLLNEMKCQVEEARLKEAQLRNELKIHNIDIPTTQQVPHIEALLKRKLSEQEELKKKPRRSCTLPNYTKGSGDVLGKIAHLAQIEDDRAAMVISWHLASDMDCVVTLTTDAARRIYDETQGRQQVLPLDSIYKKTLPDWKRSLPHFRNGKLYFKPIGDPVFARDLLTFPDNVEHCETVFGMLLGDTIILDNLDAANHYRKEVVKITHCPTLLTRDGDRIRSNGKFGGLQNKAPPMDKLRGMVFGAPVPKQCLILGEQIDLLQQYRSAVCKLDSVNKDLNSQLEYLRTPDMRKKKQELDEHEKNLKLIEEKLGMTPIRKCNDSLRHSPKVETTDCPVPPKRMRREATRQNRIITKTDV
UniProt O75391: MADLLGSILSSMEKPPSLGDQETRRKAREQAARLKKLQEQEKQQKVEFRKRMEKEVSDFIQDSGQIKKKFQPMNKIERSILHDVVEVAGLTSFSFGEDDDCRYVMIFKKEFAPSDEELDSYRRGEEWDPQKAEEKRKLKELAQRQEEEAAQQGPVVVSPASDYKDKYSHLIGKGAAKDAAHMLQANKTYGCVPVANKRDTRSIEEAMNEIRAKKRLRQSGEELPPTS
UniProt Q8WVI0: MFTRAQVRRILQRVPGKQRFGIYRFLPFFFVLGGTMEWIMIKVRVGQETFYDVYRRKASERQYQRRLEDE
UniProt Q5SQN1: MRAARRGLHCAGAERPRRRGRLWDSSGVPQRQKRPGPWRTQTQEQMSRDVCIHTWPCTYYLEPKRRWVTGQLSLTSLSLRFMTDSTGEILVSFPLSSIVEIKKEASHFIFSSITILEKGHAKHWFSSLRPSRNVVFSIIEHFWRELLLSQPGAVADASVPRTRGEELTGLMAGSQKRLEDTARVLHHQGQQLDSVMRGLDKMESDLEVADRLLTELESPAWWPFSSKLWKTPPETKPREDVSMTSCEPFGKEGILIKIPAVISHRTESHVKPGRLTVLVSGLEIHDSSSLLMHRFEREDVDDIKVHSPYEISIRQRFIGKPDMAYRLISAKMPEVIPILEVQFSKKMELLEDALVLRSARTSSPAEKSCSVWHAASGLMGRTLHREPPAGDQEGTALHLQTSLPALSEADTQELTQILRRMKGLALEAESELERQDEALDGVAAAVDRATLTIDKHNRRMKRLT

How the values were obtained:
Assay in all cases: log2 fold change, soluble protein after heating vs DMSO (PISA); higher = thermal stabilisation; K562 lysate, 10 uM; active = over 0.2 and 3.5 SD of the protein, either way, in both replicates (recomputed)
[1] = compound: C1=CC=C(C=C1)[C@H](COC2=CC3=C(C=C2)NC(=O)N3)NC(=O)C4=CC=CN(C4=O)CC5=CC(=C(C=C5)F)F
How it was run: (§1)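 To prepare the extract, K562 pellets were dounce-homogenised in PBS pH 7.4 with 1 mM MgCl2, giving crude material at 1 mg/mL protein. This was treated with 10 μM compound for 30 min, then heated in aliquots for 3 min over 48°C-58°C before pooling and addition of NP-40 to 0.5% at 4°C. Centrifugation at 21,000xg for 90 min left soluble protein in the supernatant, which TMTpro 16plex LC-MS/MS quantified with equalised channel sums. Results are log-two fold changes in thermal stability compared with solvent controls, from duplicates.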

[2] = compound: CC1=C(SC2=C1C(=N[C@H](C3=NN=C(N32)C)CC(=O)N)C4=CC=C(C=C4)Cl)C
How it was run: as §1

[3] = compound: CC1=C2C(=CC=C1)N=C(N(C2=O)C3=CC=CC=C3C)CN4C=NC5=C(N=CN=C54)N
How it was run: as §1

[4] = compound: Cc1sc2c(c1C)C(c1ccc(Cl)cc1)=N[C@@H](CC(=O)OC(C)(C)C)c1nnc(C)n1-2
How it was run: as §1

[5] = compound: c1ccc([C@@H]2C[C@H]2NC2CCNCC2)cc1
How it was run: as §1

Measured: log2 fold change

SNCG (UniProt O76070)
inactive: [1] -0.01 | [2] -0.054 | [3] -0.043 | [4] 0.046 | [5] -0.058

SOX12 (UniProt O15370)
inactive: [1] 0.101 | [2] 0.05 | [3] 0.09 | [4] -0.108 | [5] -0.185

SMPD4 isoform 4 (UniProt Q9NXE4)
inactive: [1] -0.116 | [2] 0.112 | [3] 0.087 | [5] -0.046

SP4 (UniProt Q02446)
inactive: [1] -0.31 | [2] 0.325 | [3] 0.213 | [4] 0.061 | [5] -0.019

SPARC (UniProt P09486)
inactive: [1] 0.044 | [2] 0.037 | [3] -0.063 | [4] -0.091 | [5] 0.098

SNF8 (UniProt Q96H20)
inactive: [1] 0.019 | [2] 0.035 | [3] -0.021 | [4] -0.009 | [5] 0.016

SMCHD1 (UniProt A6NHR9)
inactive: [1] 0.006 | [2] -0.029 | [3] 0.036 | [4] 0.022 | [5] -0.056

SPAG7 (UniProt O75391)
inactive: [1] 0.01 | [2] -0.029 | [3] -0.021 | [4] 0.019 | [5] -0.077

SNRPD2 (UniProt K7EJB5)
inactive: [3] 0.024 | [4] -0.047

SMIM4 (UniProt Q8WVI0)
inactive: [1] 0.078 | [2] 0.05 | [5] 0.249

SNAP47 (UniProt Q5SQN1)
inactive: [1] 0.099 | [2] -0.028 | [4] 0.002 | [5] -0.016
